PubChem BioAssay AID1259405 | NCATS | 2018
Purpose: 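Mouse-designed siRNAs used to find CHO productivity engineering targets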 (primary screen). System: Chinese hamster CHO-K1 ovary cells with stable secreted eGFP expression. Reagent: single siRNA against mouse genes, 0.8 pmol siRNA per well (2 µl of 400 nM stock). Timing: 3 days. Measurement: 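Percent of the per-plate non-targeting control median for intracellular GFP per well by laser scanning cytometry and for cell viability by ATP luminescence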. Direction: GFP, % of control: higher = more GFP per well, higher productivity; viability (ATP), % of control: higher = more viable cells (more ATP). Rule for the call: 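a knock-down is called active if GFP reaches 120% or more of non-targeting control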.
Shown is an unselected part of about 50,000 deposited reagents. About 4,000 of them (8%) were called active. 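Mouse siRNA library applied to hamster cells; one well for each siRNA.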

gene knocked down,PubChem SID,"GFP, % of control","viability (ATP), % of control",Outcome
Cul2 (cullin 2),SID363550211,98.2,106,inactive
Cul2 (cullin 2),SID363564720,146,81.8,active
Cul2 (cullin 2),SID363588265,74.3,84.4,inactive
Hlcs,SID363572511,64.8,67.9,inactive
Hlcs,SID363577791,83.8,59.7,inactive
Hlcs,SID363582015,87.4,105,inactive
Dolpp1 (dolichyl pyrophosphate phosphatase 1),SID363575037,97.7,84.4,inactive
Dolpp1 (dolichyl pyrophosphate phosphatase 1),SID363580669,85.5,63.9,inactive
Dolpp1 (dolichyl pyrophosphate phosphatase 1),SID363582781,80,57.8,inactive
Cxcr5 (C-X-C motif chemokine receptor 5),SID363571152,62,73.4,inactive
Cxcr5 (C-X-C motif chemokine receptor 5),SID363571504,70.8,51.4,inactive
Cxcr5 (C-X-C motif chemokine receptor 5),SID363571856,149,88.1,active
Or7g17 (olfactory receptor family 7 subfamily G member 17),SID363554481,45.9,59.4,inactive
Or7g17 (olfactory receptor family 7 subfamily G member 17),SID363567928,73.3,56,inactive
Or7g17 (olfactory receptor family 7 subfamily G member 17),SID363585987,73.5,72.7,inactive
Pnlip (pancreatic lipase),SID363569561,78.5,83.6,inactive
Pnlip (pancreatic lipase),SID363577305,64.6,70.6,inactive
Pnlip (pancreatic lipase),SID363578713,76.5,67.3,inactive

Copied from above, 5 entries:
gene knocked down,PubChem SID,"GFP, % of control","viability (ATP), % of control",Outcome
Cxcr5 (C-X-C motif chemokine receptor 5),SID363571152,62,73.4,inactive
Cxcr5 (C-X-C motif chemokine receptor 5),SID363571504,70.8,51.4,inactive
Cxcr5 (C-X-C motif chemokine receptor 5),SID363571856,149,88.1,active
Or7g17 (olfactory receptor family 7 subfamily G member 17),SID363554481,45.9,59.4,inactive
Or7g17 (olfactory receptor family 7 subfamily G member 17),SID363567928,73.3,56,inactive

Next reagents follow.
gene knocked down,PubChem SID,"GFP, % of control","viability (ATP), % of control",Outcome
Tmed11 (transmembrane p24 trafficking protein 11),SID363545526,45.7,70.3,inactive
Tmed11 (transmembrane p24 trafficking protein 11),SID363549039,77.4,89.4,inactive
Tmed11 (transmembrane p24 trafficking protein 11),SID363562845,25.8,56,inactive
Cfap298 (cilia and flagella associate protien 298),SID363540544,67.2,69,inactive
Cfap298 (cilia and flagella associate protien 298),SID363542995,64.4,53.2,inactive
Cfap298 (cilia and flagella associate protien 298),SID363552488,30.9,18.2,inactive
Klhl6 (kelch-like 6),SID363540269,55.8,78.1,inactive
Klhl6 (kelch-like 6),SID363542021,83.1,89.4,inactive
Klhl6 (kelch-like 6),SID363566937,55.9,91.5,inactive
4933427D14Rik (RIKEN cDNA 4933427D14 gene),SID363552143,77.2,91,inactive
4933427D14Rik (RIKEN cDNA 4933427D14 gene),SID363585279,70.4,87.2,inactive
4933427D14Rik (RIKEN cDNA 4933427D14 gene),SID363585630,102,112,inactive
Ypel2 (yippee like 2),SID363539719,63.7,90.4,inactive
Ypel2 (yippee like 2),SID363561020,84,61,inactive
Ypel2 (yippee like 2),SID363565110,72.4,70.9,inactive
"H2-M3 (histocompatibility 2, M region locus 3)",SID363553746,76.6,70.1,inactive
"H2-M3 (histocompatibility 2, M region locus 3)",SID363561703,98.5,74.9,inactive
"H2-M3 (histocompatibility 2, M region locus 3)",SID363565441,47.9,69.6,inactive
